{"source": "paper PMC7926352", "about": "“Synthesis, Characterization and In Vitro Evaluation of Novel 5-Ene-thiazolo[3,2-b][1,2,4]triazole-6(5H)-ones as Possible Anticancer Agents” (Molecules, 2021)", "key": {"A549/ATCC": {"test_system": "A549/ATCC", "type": "cell-based", "conditions": "NSCLC"}, "COLO 205": {"test_system": "COLO 205", "type": "cell-based", "conditions": "COLO 205, Colon cancer"}, "CCRF-CEM": {"test_system": "CCRF-CEM", "conditions": "Leukemia"}, "HL-60 (TB)": {"test_system": "HL-60 (TB)", "conditions": "Leukemia"}, "MOLT-4": {"test_system": "MOLT-4", "conditions": "MOLT-4, Leukemia"}, "RPMI-8226": {"test_system": "RPMI-8226", "conditions": "RPMI-8226, Leukemia"}, "HOP-62": {"test_system": "HOP-62", "conditions": "HOP-62, NSCLC"}, "NCI-H460": {"test_system": "NCI-H460", "conditions": "NCI-H460, NSCLC"}, "HT29": {"test_system": "HT29", "conditions": "HT29, Colon cancer"}, "KM12": {"test_system": "KM12", "conditions": "KM12, Colon cancer"}, "SW-620": {"test_system": "SW-620", "conditions": "SW-620, Colon cancer"}, "SF-539": {"test_system": "SF-539", "conditions": "SF-539, CNS Cancer"}, "SK-MEL-28": {"test_system": "SK-MEL-28", "conditions": "SK-MEL-28, Melanoma"}, "UACC-257": {"test_system": "UACC-257", "conditions": "UACC-257, Melanoma"}, "UACC-62": {"test_system": "UACC-62", "conditions": "UACC-62, Melanoma"}, "OVCAR-8": {"test_system": "OVCAR-8", "conditions": "OVCAR-8, Ovarian Cancer"}, "SK-OV-3": {"test_system": "SK-OV-3", "conditions": "SK-OV-3, Ovarian Cancer"}, "786-0": {"test_system": "786-0", "conditions": "786-0, Renal Cancer"}, "ACHN": {"test_system": "ACHN", "conditions": "Renal Cancer"}, "RXF 393": {"test_system": "RXF 393", "conditions": "RXF 393, Renal Cancer"}, "TK-10": {"test_system": "TK-10", "conditions": "TK-10, Renal Cancer"}, "UO-31": {"test_system": "UO-31", "conditions": "UO-31, Renal Cancer"}, "SN12C": {"test_system": "SN12C", "conditions": "Renal Cancer"}, "PC-3": {"test_system": "PC-3", "conditions": "PC-3, Prostate Cancer"}, "DU-145": {"test_system": "DU-145", "conditions": "DU-145, Prostate Cancer"}, "NCI/ADR-RES": {"test_system": "NCI/ADR-RES", "conditions": "Breast Cancer"}, "MDA-MB-435": {"test_system": "MDA-MB-435", "conditions": "MDA-MB-435, Breast Cancer"}, "MDA-MB-231/ATCC": {"test_system": "MDA-MB-231/ATCC", "conditions": "Breast Cancer"}, "Leukemia cell lines": {"test_system": "Leukemia cell lines", "conditions": "Leukemia subpanel"}, "[1]": {"test_system": "Prostate Cancer cell lines", "conditions": "Prostate Cancer subpanel"}, "Breast Cancer cell lines": {"test_system": "Breast Cancer cell lines", "conditions": "Breast Cancer subpanel"}}, "data": [{"substance": "Ethyl(Z)-4-(3-(4-chloro-2-((6-oxothiazolo[3,2-b][1,2,4]triazol-5(6H)-ylidene)methyl)phenyl)propanamido)benzoate [Compound 2i]", "values": [{"measurement": "SI (GI50)", "setting": "A549/ATCC", "value": 0.56}, {"measurement": "SI (LC50)", "setting": "A549/ATCC", "value": 0.79}, {"measurement": "SI (TGI)", "setting": "A549/ATCC", "value": 0.71}, {"measurement": "SI (GI50)", "setting": "COLO 205", "value": 0.74}, {"measurement": "SI (LC50)", "setting": "COLO 205", "value": 0.93}, {"measurement": "SI (TGI)", "setting": "COLO 205", "value": 0.89}, {"measurement": "SI (GI50)", "setting": "CCRF-CEM", "value": 3.81}, {"measurement": "SI (TGI)", "setting": "CCRF-CEM", "value": 2.82}, {"measurement": "SI (GI50)", "setting": "HL-60 (TB)", "value": 0.89}, {"measurement": "SI (TGI)", "setting": "HL-60 (TB)", "value": 0.68}, {"measurement": "SI (GI50)", "setting": "MOLT-4", "value": 0.60}, {"measurement": "SI (TGI)", "setting": "MOLT-4", "value": 0.54}, {"measurement": "SI (GI50)", "setting": "RPMI-8226", "value": 2.04}, {"measurement": "SI (LC50)", "setting": "RPMI-8226", "value": 0.66}, {"measurement": "SI (TGI)", "setting": "RPMI-8226", "value": 1.09}, {"measurement": "SI (GI50)", "setting": "HOP-62", "value": 0.83}, {"measurement": "SI (LC50)", "setting": "HOP-62", "value": 1.17}, {"measurement": "SI (TGI)", "setting": "HOP-62", "value": 1.05}, {"measurement": "SI (GI50)", "setting": "NCI-H460", "value": 0.81}, {"measurement": "SI (LC50)", "setting": "NCI-H460", "value": 1.12}, {"measurement": "SI (TGI)", "setting": "NCI-H460", "value": 1.02}, {"measurement": "SI (GI50)", "setting": "HT29", "value": 0.91}, {"measurement": "SI (LC50)", "setting": "HT29", "value": 1.29}, {"measurement": "SI (TGI)", "setting": "HT29", "value": 1.15}, {"measurement": "SI (GI50)", "setting": "KM12", "value": 1.07}, {"measurement": "SI (LC50)", "setting": "KM12", "value": 1.15}, {"measurement": "SI (TGI)", "setting": "KM12", "value": 1.17}, {"measurement": "SI (GI50)", "setting": "SW-620", "value": 1.10}, {"measurement": "SI (LC50)", "setting": "SW-620", "value": 1.35}, {"measurement": "SI (TGI)", "setting": "SW-620", "value": 1.32}, {"measurement": "SI (GI50)", "setting": "SF-539", "value": 0.87}, {"measurement": "SI (LC50)", "setting": "SF-539", "value": 1.26}, {"measurement": "SI (TGI)", "setting": "SF-539", "value": 1.12}, {"measurement": "SI (GI50)", "setting": "SK-MEL-28", "value": 0.91}, {"measurement": "SI (LC50)", "setting": "SK-MEL-28", "value": 1.29}, {"measurement": "SI (TGI)", "setting": "SK-MEL-28", "value": 1.18}, {"measurement": "SI (GI50)", "setting": "UACC-257", "value": 1.05}, {"measurement": "SI (LC50)", "setting": "UACC-257", "value": 1.00}, {"measurement": "SI (TGI)", "setting": "UACC-257", "value": 1.09}, {"measurement": "SI (GI50)", "setting": "UACC-62", "value": 0.79}, {"measurement": "SI (LC50)", "setting": "UACC-62", "value": 1.23}, {"measurement": "SI (TGI)", "setting": "UACC-62", "value": 1.07}, {"measurement": "SI (GI50)", "setting": "OVCAR-8", "value": 0.81}, {"measurement": "SI (LC50)", "setting": "OVCAR-8", "value": 0.74}, {"measurement": "SI (TGI)", "setting": "OVCAR-8", "value": 0.83}, {"measurement": "SI (GI50)", "setting": "SK-OV-3", "value": 0.55}, {"measurement": "SI (LC50)", "setting": "SK-OV-3", "value": 1.02}, {"measurement": "SI (TGI)", "setting": "SK-OV-3", "value": 0.79}, {"measurement": "SI (GI50)", "setting": "786-0", "value": 0.98}, {"measurement": "SI (LC50)", "setting": "786-0", "value": 1.23}, {"measurement": "SI (TGI)", "setting": "786-0", "value": 1.17}, {"measurement": "SI (GI50)", "setting": "ACHN", "value": 0.71}, {"measurement": "SI (LC50)", "setting": "ACHN", "value": 1.17}, {"measurement": "SI (TGI)", "setting": "ACHN", "value": 0.97}, {"measurement": "SI (GI50)", "setting": "RXF 393", "value": 1.91}, {"measurement": "SI (LC50)", "setting": "RXF 393", "value": 1.07}, {"measurement": "SI (TGI)", "setting": "RXF 393", "value": 1.31}, {"measurement": "SI (GI50)", "setting": "TK-10", "value": 0.67}, {"measurement": "SI (LC50)", "setting": "TK-10", "value": 1.23}, {"measurement": "SI (TGI)", "setting": "TK-10", "value": 0.95}, {"measurement": "SI (GI50)", "setting": "UO-31", "value": 0.72}, {"measurement": "SI (LC50)", "setting": "UO-31", "value": 1.15}, {"measurement": "SI (TGI)", "setting": "UO-31", "value": 0.95}, {"measurement": "SI (GI50)", "setting": "SN12C", "value": 0.87}, {"measurement": "SI (LC50)", "setting": "SN12C", "value": 1.07}, {"measurement": "SI (TGI)", "setting": "SN12C", "value": 1.12}, {"measurement": "SI (GI50)", "setting": "PC-3", "value": 0.98}, {"measurement": "SI (TGI)", "setting": "PC-3", "value": 0.74}, {"measurement": "SI (GI50)", "setting": "DU-145", "value": 2.75}, {"measurement": "SI (LC50)", "setting": "DU-145", "value": 1.74}, {"measurement": "SI (TGI)", "setting": "DU-145", "value": 1.74}, {"measurement": "SI (GI50)", "setting": "NCI/ADR-RES", "value": 0.50}, {"measurement": "SI (TGI)", "setting": "NCI/ADR-RES", "value": 0.42}, {"measurement": "SI (GI50)", "setting": "MDA-MB-435", "value": 1.05}, {"measurement": "SI (TGI)", "setting": "MDA-MB-435", "value": 1.12}, {"measurement": "SI (GI50)", "setting": "MDA-MB-231/ATCC", "value": 0.89}, {"measurement": "SI (TGI)", "setting": "MDA-MB-231/ATCC", "value": 1.05}, {"measurement": "SI (GI50)", "setting": "Leukemia cell lines", "value": 0.97}, {"measurement": "SI (LC50)", "setting": "Leukemia cell lines", "value": 0.64}, {"measurement": "SI (TGI)", "setting": "Leukemia cell lines", "value": 0.55}, {"measurement": "SI (GI50)", "setting": "[1]", "value": 1.44}, {"measurement": "SI (LC50)", "setting": "[1]", "value": 0.93}, {"measurement": "SI (TGI)", "setting": "[1]", "value": 1.04}, {"measurement": "SI (GI50)", "setting": "Breast Cancer cell lines", "value": 1.13}, {"measurement": "SI (LC50)", "setting": "Breast Cancer cell lines", "value": 0.86}, {"measurement": "SI (TGI)", "setting": "Breast Cancer cell lines", "value": 0.93}]}]}
